Holding throughout (assay): co-IP
Assay [1] addresses MEGF8^ΔCtail (a.a. 1-2607), 1D4 tagged, transiently expressed in HEK293T cells (human) (UniProt Q7Z7M0).
For assay [2], the target named is MEGF8^ΔMASRPFA (a.a. 2625-2631 deleted), 1D4 tagged, transiently expressed in HEK293T cells (human) (UniProt Q7Z7M0).
The target in assay [3] is T1, MEGF8^ΔN (a.a. 2573-2778; a.a. 26-2572 deleted), 1D4 tagged, transiently expressed in HEK293T cells (human) (UniProt Q7Z7M0).
T1 sequence: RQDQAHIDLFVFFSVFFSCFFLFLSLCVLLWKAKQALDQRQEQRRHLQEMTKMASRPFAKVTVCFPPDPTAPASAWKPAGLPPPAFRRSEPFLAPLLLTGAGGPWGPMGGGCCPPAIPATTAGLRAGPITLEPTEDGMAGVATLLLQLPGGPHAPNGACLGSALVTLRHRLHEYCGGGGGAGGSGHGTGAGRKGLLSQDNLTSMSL

In assay [4] the target is MEGF8, 1D4 tagged, stably expressed in Megf8^-/- NIH/3T3 cells (human) (UniProt Q7Z7M0).
For assay [5], the target named is MEGF8^ΔCtail (a.a. 1-2607), 1D4 tagged, stably expressed in Megf8^-/- NIH/3T3 cells (human) (UniProt Q7Z7M0).

These are yes or no findings as the source states them, for the method shown. In cells and extracts the contact can be indirect. Some binding calls cover weakened binding; strength is not graded here. For some assays here: Where a sequence is shown, tags or fusion partners need not be part of it.

B1: MGRN1 (Mahogunin Ring Finger 1), mouse full-length, C-terminal 3xFLAG tag, transiently expressed in HEK293T cells (enzyme, UniProt Q9D074-2 1-533)
chain: MGSILSRRIAGVEDIDIQANSAYRYPPKSAGNYFASHFFMGGEKFDTPHPEGYLFGENMDLNFLGSRPVQFPYVTPAPHEPVKTLRSLVNIRKDSLRLVRYKEDADSPTEDGEKPRVLYSLEFTFDADARVAITIYCQAVEELVNGVAVYSCKNPSLQSETVHYKRGVSQQFSLPSFKIDFSEWKDDELNFDLDRGVFPVVIQAVVDEGDVVEVTGHAHVLLAAFEKHVDGSFSVKPLKQKQIVDRVSYLLQEIYGIENKNNQETKPSDDENSDNSSECVVCLSDLRDTLILPCRHLCLCTSCADTLRYQANNCPICRLPFRALLQIRAVRKKPGALSPISFSPVLAQSVDHDEHSSSDSIPPGYEPISLLEALNGLRAVSPAIPSAPLYEEITYSGISDGLSQASCPLAGLDRIMESGLQKGKTQSKSPDSTLRSPSFPIHEEDEEKLSEDSDAPLPPSGVELVLRESSSPESFGTEEGDEPSLKQGSRVPSIDDVLQDGSPQHHGCSQPVPPADIYLPALGPESCSVGIEE
Take B1: the binding entry is on record as “no binding” in assay [1], “no binding” in assay [2] and “binds” in assay [3].

B2: endogenous MGRN1 of NIH/3T3 cells (enzyme, UniProt Q9D074-2 1-533)
chain: B1 chain
For B2, the binding result in assay [4] was “binds”; in assay [5] it was “no binding”.

Source of the values: article doi:10.1101/2020.05.25.113944.
